6 molecules from the supplement of paper PMC4862054 can be followed below.

Experiment in all cases: normalised response (% of control), CellTox Green; higher = less cell death (100 = DMSO, 0 = benzethonium chloride kill control)
Conditions in all cases: incubation time: 72 h

The test system of assay [1] is BT-474. On the procedure: (§1)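 DSRT, 72 h incubation, CellTox Green / CellTiter-Glo readout. Signal is normalised to DMSO and benzethonium chloride controls. Value is the normalised response at the lowest tested concentration.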
Assay [2] concerns DU-4475. The procedure:
as §1

The subject of assay [3] is Hs578T. On the procedure: as §1
The subject of assay [4] is CAL-51. On the procedure: as §1
Assay [5] concerns CAL-120. The procedure:
as §1

In assay [6] the test system is BT-549. The procedure: as §1
The subject of assay [7] is MDA-MB-453. On the procedure: as §1
Assay [8] concerns MFM-223. On the procedure:
as §1

In assay [9] the test system is HCC1599. The procedure:
as §1

For assay [10], the system named is CAL-148. On the procedure: as §1
For assay [11], the system named is MDA-MB-468. The procedure:
as §1

Assay [12] concerns HCC1937. On the procedure:
as §1

The subject of assay [13] is CAL-85-1. On the procedure:
as §1

Assay [14] concerns HCC1143. The procedure: as §1
For assay [15], the system named is MDA-MB-231. On the procedure:
as §1

Assay [16] concerns MCF-10A. The procedure:
as §1

In assay [17] the test system is MDA-MB-436. The procedure:
as §1

In assay [18] the test system is HDQ-P1. On the procedure:
as §1

Assay [19] has as its system BT-474. On the procedure: (§2)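 DSRT, 72 h incubation, CellTox Green / CellTiter-Glo readout. Signal is normalised to DMSO and benzethonium chloride controls. Value is the normalised response at dose 2.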
The source holds these as a separate data set.

The test system of assay [20] is DU-4475. The procedure:
as §2
This is another data set of the same source.

The subject of assay [21] is Hs578T. On the procedure:
as §2
The source holds these as a separate data set.

The subject of assay [22] is CAL-51. The procedure:
as §2
This is another data set of the same source.

Assay [23] concerns CAL-120. The procedure: as §2
The source holds these as a separate data set.

The subject of assay [24] is BT-549. On the procedure:
as §2
The source holds these as a separate data set.

In assay [25] the test system is MDA-MB-436. On the procedure: as §2
The source holds these as a separate data set.

Assay [26] relates to MDA-MB-453. On the procedure: as §2
This is another data set of the same source.

Assay [27] concerns MFM-223. The procedure: as §2
This is another data set of the same source.

The subject of assay [28] is HCC1599. On the procedure: as §2
This is another data set of the same source.

The subject of assay [29] is CAL-148. On the procedure:
as §2
This is another data set of the same source.

For assay [30], the system named is MDA-MB-468. The procedure:
as §2
This is another data set of the same source.

For assay [31], the system named is HCC1937. On the procedure: as §2
This is another data set of the same source.

Assay [32] deals with HDQ-P1. On the procedure: as §2
The source holds these as a separate data set.

Assay [33] concerns CAL-85-1. The procedure: as §2
The source holds these as a separate data set.

The subject of assay [34] is HCC1143. On the procedure:
as §2
The source holds these as a separate data set.

Assay [35] concerns MDA-MB-231. The procedure:
as §2
The source holds these as a separate data set.

Assay [36] concerns MCF-10A. On the procedure: as §2
This is another data set of the same source.

Small differences around the control level are noise.

Regarding `COc1cc2nccc(Oc3ccc(NC(=O)C4(C(=O)Nc5ccc(F)cc5)CC4)cc3)c2cc1OC` [Cabozantinib] (0.1 nM), the normalised response in [1] is 100%; in [2], 98.1%; in assay [3], 66.8%; in [4] it was 99.6%; in assay [5], 93.7%; in [6] it was 96.1%. Besides, the normalised response in assay [7] turned out to be 92.9%; in assay [8] it was 97.7%; in assay [9] it was 90.7%; in assay [10], 97.5%; in [11], 53.5%; in [12], 85.3%. The normalised response in assay [13] stood at 109%; in [14], 105%; in assay [15] it was 95.9%; in [16], 98.5%.
Regarding `Cc1cn(-c2cc(NC(=O)c3ccc(C)c(Nc4nccc(-c5cccnc5)n4)c3)cc(C(F)(F)F)c2)cn1` [Nilotinib] (1 nM), the normalised response came out at 102% in [1]; 98.3% in assay [2]; 107% in assay [3]; 107% in [4]; 95.1% in assay [5]; 94.1% in [6]. For the same molecule, the normalised response in [17] is 92.4%; in assay [7] it was 97.3%; in assay [8], 104%; in assay [9], 92.5%; in assay [10], 98.8%; in assay [12], 65.2%. The normalised response in assay [18] stood at 70.8%; in assay [13], 97.1%; in assay [15], 100%; in assay [16], 98.4%.
`OC[C@H]1O[C@@H](n2cnc3c2N=CNC[C@H]3O)C[C@@H]1O` [Pentostatin] (10 nM): the normalised response in assay [19] was found to be 102%; in [20] it was 97.5%; in assay [21], 128%; in assay [22] it was 90.4%; in assay [23], 100%; in assay [24], 109%. Moreover, the normalised response in assay [25] stood at 57%; in [26], 92.8%; in assay [27], 104%; in [28], 94.8%; in [29], 108%; in [30], 99.9%. Moreover, the normalised response in assay [31] was found to be 110%; in [32], 104%; in assay [33], 98%; in [34], 96.5%; in assay [35], 116%; in assay [36], 98.5%.
As to `O=C(NC[C@H](O)CO)c1ccncc1Nc1ccc(I)cc1F` [Pimasertib] (10 nM), the normalised response in assay [19] is 100%; in [20], 112%; in [21], 111%; in assay [22] it was 110%; in assay [23], 104%; in [24], 91.7%. In addition, the normalised response came out at 74.5% in [25]; 110% in assay [26]; 92.5% in assay [27]; 119% in assay [28]; 82.5% in assay [29]; 82.1% in assay [30]. Also, the normalised response in assay [31] was found to be 102%; in assay [32] it was 73.5%; in assay [33] it was 87.7%; in assay [34], 117%; in assay [35], 92.7%; in assay [36] it was 117%.
For the molecule `CC(C)(C)c1cc(NC(=O)Nc2ccc(-c3cn4c(n3)sc3cc(OCCN5CCOCC5)ccc34)cc2)no1` [Quizartinib] (0.1 nM), the normalised response in assay [1] amounted to 104%; in assay [2], 98.8%; in [3], 108%; in [4], 105%; in assay [5], 103%; in [6], 84%. The normalised response in assay [17] was found to be 94.7%; in assay [7] it was 112%; in assay [8], 98.9%; in assay [9] it was 91.5%; in assay [10] it was 83%; in assay [11], 95.8%. Further, the normalised response in assay [12] was 84.2%; in [13] it was 103%; in assay [14], 108%; in [15], 100%; in assay [16], 61.6%.
Consider `C=CC[C@@H]1/C=C(\C)C[C@H](C)C[C@H](OC)[C@H]2O[C@@](O)(C(=O)C(=O)N3CCCC[C@H]3C(=O)O[C@H](/C(C)=C/[C@@H]3CC[C@@H](O)[C@H](OC)C3)[C@H](C)[C@@H](O)CC1=O)[C@H](C)C[C@@H]2OC` [Tacrolimus] (1 nM), for which the normalised response in assay [1] was 98.1%; in assay [2] it was 92.1%; in [3], 68.3%; in assay [4], 103%; in assay [5], 102%; in assay [6] it was 90.5%. Further, the normalised response in [17] is 69.9%; in [7] it was 102%; in assay [8], 101%; in assay [9], 94.1%; in assay [11], 117%; in [12], 107%. In addition, the normalised response stood at 91.3% in assay [13], 110% in assay [14], 94.2% in assay [15] and 102% in assay [16].
